Measurements taken from paper PMC8584520.
No constants are given. Whether binding was seen depends on the method and setting. In cells and extracts the contact can be indirect. A result given as binding can be weak or reduced; the word gives no strength.

Amino acid sequences for entries named in this document (tags omitted). A change or cut given only in a name is not applied to a line headed by its entry.
UniProt Q86R88: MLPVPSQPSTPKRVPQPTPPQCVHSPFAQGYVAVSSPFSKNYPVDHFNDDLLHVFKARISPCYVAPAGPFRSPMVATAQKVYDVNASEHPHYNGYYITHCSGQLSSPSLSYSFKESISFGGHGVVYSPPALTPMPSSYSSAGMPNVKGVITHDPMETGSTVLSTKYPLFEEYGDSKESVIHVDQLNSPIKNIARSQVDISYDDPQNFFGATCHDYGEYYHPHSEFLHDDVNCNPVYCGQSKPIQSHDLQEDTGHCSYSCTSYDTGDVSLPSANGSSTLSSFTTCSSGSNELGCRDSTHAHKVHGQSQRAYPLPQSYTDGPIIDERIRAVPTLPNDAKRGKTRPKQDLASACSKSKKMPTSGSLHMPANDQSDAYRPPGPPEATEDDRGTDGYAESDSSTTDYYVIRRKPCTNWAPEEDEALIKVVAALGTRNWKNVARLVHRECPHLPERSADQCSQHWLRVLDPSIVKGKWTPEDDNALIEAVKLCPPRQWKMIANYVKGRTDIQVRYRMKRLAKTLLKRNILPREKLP
UniProt Q86C20: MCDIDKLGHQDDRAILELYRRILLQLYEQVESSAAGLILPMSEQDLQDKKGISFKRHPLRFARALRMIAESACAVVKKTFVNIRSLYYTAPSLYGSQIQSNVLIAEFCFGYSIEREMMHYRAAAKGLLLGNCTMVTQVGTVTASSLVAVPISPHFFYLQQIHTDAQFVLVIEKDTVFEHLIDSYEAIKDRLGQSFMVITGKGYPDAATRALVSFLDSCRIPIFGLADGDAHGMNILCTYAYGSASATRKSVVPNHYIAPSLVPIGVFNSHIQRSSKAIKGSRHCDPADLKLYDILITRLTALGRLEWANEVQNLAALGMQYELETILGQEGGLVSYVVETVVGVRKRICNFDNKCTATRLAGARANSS

Tests used:
[1] = biological target: MYB2 (G. lamblia (endogenous in WB trophozoites)) (UniProt Q86R88); assay: co-IP; reciprocal: lysates of pPSpo11 stable transfectants in encystation medium for 24 h; 2 μg anti-WRKY or anti-MYB2 antibody or preimmune serum for 2 h, then protein G plus/protein A-agarose for 1 h; Western blot with anti-HA
[2] = biological target: HA-tagged Giardia lamblia Spo11 (Spo11-HA) (G. lamblia) (UniProt Q86C20); assay: co-IP; lysates of pPSpo11 stable transfectants (control: 5'Δ5N-Pac) cultured in encystation medium for 24 h; anti-HA antibody conjugated to beads; Western blot with anti-HA, anti-WRKY, anti-MYB2, anti-ISCS

Substance | binding [1] | binding [2]
HA-tagged Giardia lamblia Spo11 (Spo11-HA) (from UniProt Q86C20) | binds | –
MYB2 (from UniProt Q86R88) | – | binds
